From the supplement of paper PMC11264405

Key:
Experiment in all cases: minimum inhibitory concentration
tigecycline = compound: CN(C)c1cc(NC(=O)CNC(C)(C)C)c(O)c2c1C[C@H]1C[C@H]3[C@H](N(C)C)C(O)=C(C(N)=O)C(=O)[C@@]3(O)C(O)=C1C2=O [tigecycline]
meropenem = compound: C[C@@H](O)[C@H]1C(=O)N2C(C(=O)O)=C(S[C@@H]3CN[C@H](C(=O)N(C)C)C3)[C@H](C)[C@H]12 [meropenem]
imipenem = compound: C[C@@H](O)[C@H]1C(=O)N2C(C(=O)O)=C(SCCNC=N)C[C@H]12 [imipenem]
fidaxomicin = compound: CCc1c(Cl)c(O)c(Cl)c(O)c1C(=O)O[C@H]1[C@H](O)[C@H](OC)[C@H](OC/C2=C\C=C\C[C@H](O)/C(C)=C/[C@H](CC)[C@@H](O[C@@H]3OC(C)(C)[C@@H](OC(=O)C(C)C)[C@H](O)[C@@H]3O)/C(C)=C/C(C)=C/C[C@@H]([C@@H](C)O)OC2=O)O[C@@H]1C [fidaxomicin]
rifampicin = compound: CO[C@H]1/C=C/O[C@@]2(C)Oc3c(C)c(O)c4c(O)c(c(/C=N/N5CCN(C)CC5)c(O)c4c3C2=O)NC(=O)/C(C)=C\C=C\[C@H](C)[C@H](O)[C@@H](C)[C@@H](O)[C@@H](C)[C@H](OC(C)=O)[C@@H]1C [rifampicin]
clindamycin = compound: CCC[C@@H]1C[C@@H](C(=O)N[C@@H]([C@H]2O[C@H](SC)[C@H](O)[C@@H](O)[C@H]2O)[C@H](C)Cl)N(C)C1 [clindamycin]
vancomycin = compound: CN[C@H](CC(C)C)C(=O)N[C@H]1C(=O)N[C@@H](CC(N)=O)C(=O)N[C@H]2C(=O)N[C@H]3C(=O)N[C@H](C(=O)N[C@H](C(=O)O)c4cc(O)cc(O)c4-c4cc3ccc4O)[C@H](O)c3ccc(c(Cl)c3)Oc3cc2cc(c3O[C@@H]2O[C@H](CO)[C@@H](O)[C@H](O)[C@H]2O[C@H]2C[C@](C)(N)[C@H](O)[C@H](C)O2)Oc2ccc(cc2Cl)[C@H]1O [vancomycin]
linezolid = compound: CC(=O)NC[C@H]1CN(c2ccc(N3CCOCC3)c(F)c2)C(=O)O1 [linezolid]
metronidazole = compound: Cc1ncc([N+](=O)[O-])n1CCO [metronidazole]

Test System | minimum inhibitory concentration (tigecycline) [µg/mL] | minimum inhibitory concentration (meropenem) [µg/mL] | minimum inhibitory concentration (imipenem) [µg/mL] | minimum inhibitory concentration (fidaxomicin) [µg/mL] | minimum inhibitory concentration (rifampicin) [µg/mL] | minimum inhibitory concentration (clindamycin) [µg/mL] | minimum inhibitory concentration (vancomycin) [µg/mL] | minimum inhibitory concentration (linezolid) [µg/mL] | minimum inhibitory concentration (metronidazole) [µg/mL]
Clostridioides difficile PCR ribotype 029 isolate #135 (European region: South, country: Spain, isolate source: Human, ribotype: 029) | < 0.03 | 2 | 2 | 0.06 | < 0.001 | 16 | 1 | 2 | 0.25
Clostridioides difficile PCR ribotype 029 isolate #311 (European region: West, country: Netherlands, isolate source: Animal, ribotype: 029) | < 0.03 | 2 | 2 | 0.015 | < 0.001 | 2 | 0.5 | 2 | < 0.125
Clostridioides difficile PCR ribotype 031 isolate #136 (European region: North, country: UK, isolate source: Human, ribotype: 031) | 0.06 | 2 | 4 | 0.06 | < 0.001 | 2 | 1 | 2 | 0.25
Clostridioides difficile PCR ribotype 031 isolate #137 (European region: North, country: UK, isolate source: Human, ribotype: 031) | 0.06 | 2 | 4 | 0.06 | < 0.001 | 4 | 0.5 | 2 | 0.25
Clostridioides difficile PCR ribotype 031 isolate #138 (European region: North, country: UK, isolate source: Human, ribotype: 031) | < 0.03 | 2 | 2 | 0.06 | < 0.001 | 2 | 1 | 2 | < 0.125
Clostridioides difficile PCR ribotype 032 isolate #139 (European region: South, country: Greece, isolate source: Human, ribotype: 032) | 0.06 | 2 | 1 | 0.008 | < 0.001 | > 128 | 1 | 2 | < 0.125
Clostridioides difficile PCR ribotype 033 isolate #312 (European region: West, country: Netherlands, isolate source: Animal, ribotype: 033) | 0.25 | 2 | 0.5 | 0.008 | < 0.001 | 0.5 | 0.25 | 2 | < 0.125
Clostridioides difficile PCR ribotype 035 isolate #140 (European region: East, country: Poland, isolate source: Human, ribotype: 035) | < 0.03 | 2 | 2 | 0.004 | < 0.001 | 0.25 | 1 | 2 | < 0.125
Clostridioides difficile PCR ribotype 035 isolate #141 (European region: North, country: UK, isolate source: Human, ribotype: 035) | 0.06 | 2 | 2 | 0.06 | < 0.001 | 4 | 0.25 | 2 | 1
Clostridioides difficile PCR ribotype 035 isolate #142 (European region: North, country: UK, isolate source: Human, ribotype: 035) | < 0.03 | 2 | 2 | 0.06 | < 0.001 | 8 | 0.5 | 2 | < 0.125
Clostridioides difficile PCR ribotype 035 isolate #143 (European region: North, country: UK, isolate source: Human, ribotype: 035) | < 0.03 | 2 | 2 | 0.015 | < 0.001 | 0.25 | 0.5 | 2 | < 0.125
Clostridioides difficile PCR ribotype 035 isolate #313 (European region: West, country: Netherlands, isolate source: Animal, ribotype: 035) | < 0.03 | 4 | 2 | 0.015 | < 0.001 | 4 | 0.5 | 2 | 0.25
Clostridioides difficile PCR ribotype 037 isolate #144 (European region: North, country: Sweden, isolate source: Human, ribotype: 037) | < 0.03 | 2 | 2 | 0.015 | < 0.001 | 16 | 1 | 1 | < 0.125
Clostridioides difficile PCR ribotype 038 isolate #145 (European region: North, country: Sweden, isolate source: Human, ribotype: 038) | < 0.03 | 2 | 1 | 0.015 | < 0.001 | 16 | 1 | 2 | < 0.125
Clostridioides difficile PCR ribotype 038 isolate #146 (European region: North, country: Sweden, isolate source: Human, ribotype: 038) | < 0.03 | 2 | 1 | 0.03 | < 0.001 | 8 | 1 | 1 | < 0.125
Clostridioides difficile PCR ribotype 039 isolate #147 (European region: North, country: UK, isolate source: Human, ribotype: 039) | < 0.03 | 4 | 4 | 0.002 | < 0.001 | 4 | 1 | 2 | 0.25
Clostridioides difficile PCR ribotype 039 isolate #149 (European region: East, country: Poland, isolate source: Human, ribotype: 039) | < 0.03 | 4 | 4 | 0.06 | < 0.001 | > 128 | 0.5 | 2 | 0.25
Clostridioides difficile PCR ribotype 039 isolate #150 (European region: South, country: Italy, isolate source: Human, ribotype: 039) | 0.06 | 4 | 4 | 0.06 | < 0.001 | 4 | 0.25 | 2 | 1
Clostridioides difficile PCR ribotype 039 isolate #151 (European region: North, country: UK, isolate source: Human, ribotype: 039) | < 0.03 | 4 | 4 | 0.125 | < 0.001 | 16 | 0.5 | 2 | 0.25
Clostridioides difficile PCR ribotype 039 isolate #152 (European region: North, country: UK, isolate source: Human, ribotype: 039) | < 0.03 | 1 | 4 | 0.125 | < 0.001 | > 128 | 0.5 | 2 | 0.5
Clostridioides difficile PCR ribotype 039 isolate #153 (European region: North, country: UK, isolate source: Human, ribotype: 039) | < 0.03 | 4 | 4 | 0.06 | < 0.001 | > 128 | 1 | 2 | 0.25
Clostridioides difficile PCR ribotype 039 isolate #154 (European region: South, country: Spain, isolate source: Human, ribotype: 039) | 0.06 | 4 | 4 | 0.06 | < 0.001 | 64 | 0.5 | 2 | 0.5
Clostridioides difficile PCR ribotype 039 isolate #155 (European region: South, country: Spain, isolate source: Human, ribotype: 039) | 0.06 | 4 | 4 | 0.06 | < 0.001 | 1 | 0.5 | 2 | 0.5
Clostridioides difficile PCR ribotype 039 isolate #156 (European region: North, country: UK, isolate source: Human, ribotype: 039) | < 0.03 | 4 | 2 | 0.06 | < 0.001 | > 128 | 0.5 | 0.5 | 0.25
Clostridioides difficile PCR ribotype 039 isolate #157 (European region: South, country: Spain, isolate source: Human, ribotype: 039) | 0.015 | 4 | 2 | 0.06 | 0.002 | > 128 | 0.5 | 2 | < 0.125
Clostridioides difficile PCR ribotype 039 isolate #158 (European region: South, country: Spain, isolate source: Human, ribotype: 039) | < 0.03 | 4 | 4 | 0.06 | 0.002 | > 128 | 1 | 2 | 0.25

In a second layout: entries from further up
Test System	minimum inhibitory concentration (tigecycline) [µg/mL]	minimum inhibitory concentration (meropenem) [µg/mL]	minimum inhibitory concentration (imipenem) [µg/mL]	minimum inhibitory concentration (fidaxomicin) [µg/mL]	minimum inhibitory concentration (rifampicin) [µg/mL]	minimum inhibitory concentration (clindamycin) [µg/mL]	minimum inhibitory concentration (vancomycin) [µg/mL]	minimum inhibitory concentration (linezolid) [µg/mL]	minimum inhibitory concentration (metronidazole) [µg/mL]
Clostridioides difficile PCR ribotype 038 isolate #145 (European region: North, country: Sweden, isolate source: Human, ribotype: 038)	< 0.03	2	1	0.015	< 0.001	16	1	2	< 0.125
Clostridioides difficile PCR ribotype 038 isolate #146 (European region: North, country: Sweden, isolate source: Human, ribotype: 038)	< 0.03	2	1	0.03	< 0.001	8	1	1	< 0.125
